Data taken from publication PMC3266932.

Sequences of proteins named here, by UniProt entry; tags and fusion partners are left off.
UniProt Q15648: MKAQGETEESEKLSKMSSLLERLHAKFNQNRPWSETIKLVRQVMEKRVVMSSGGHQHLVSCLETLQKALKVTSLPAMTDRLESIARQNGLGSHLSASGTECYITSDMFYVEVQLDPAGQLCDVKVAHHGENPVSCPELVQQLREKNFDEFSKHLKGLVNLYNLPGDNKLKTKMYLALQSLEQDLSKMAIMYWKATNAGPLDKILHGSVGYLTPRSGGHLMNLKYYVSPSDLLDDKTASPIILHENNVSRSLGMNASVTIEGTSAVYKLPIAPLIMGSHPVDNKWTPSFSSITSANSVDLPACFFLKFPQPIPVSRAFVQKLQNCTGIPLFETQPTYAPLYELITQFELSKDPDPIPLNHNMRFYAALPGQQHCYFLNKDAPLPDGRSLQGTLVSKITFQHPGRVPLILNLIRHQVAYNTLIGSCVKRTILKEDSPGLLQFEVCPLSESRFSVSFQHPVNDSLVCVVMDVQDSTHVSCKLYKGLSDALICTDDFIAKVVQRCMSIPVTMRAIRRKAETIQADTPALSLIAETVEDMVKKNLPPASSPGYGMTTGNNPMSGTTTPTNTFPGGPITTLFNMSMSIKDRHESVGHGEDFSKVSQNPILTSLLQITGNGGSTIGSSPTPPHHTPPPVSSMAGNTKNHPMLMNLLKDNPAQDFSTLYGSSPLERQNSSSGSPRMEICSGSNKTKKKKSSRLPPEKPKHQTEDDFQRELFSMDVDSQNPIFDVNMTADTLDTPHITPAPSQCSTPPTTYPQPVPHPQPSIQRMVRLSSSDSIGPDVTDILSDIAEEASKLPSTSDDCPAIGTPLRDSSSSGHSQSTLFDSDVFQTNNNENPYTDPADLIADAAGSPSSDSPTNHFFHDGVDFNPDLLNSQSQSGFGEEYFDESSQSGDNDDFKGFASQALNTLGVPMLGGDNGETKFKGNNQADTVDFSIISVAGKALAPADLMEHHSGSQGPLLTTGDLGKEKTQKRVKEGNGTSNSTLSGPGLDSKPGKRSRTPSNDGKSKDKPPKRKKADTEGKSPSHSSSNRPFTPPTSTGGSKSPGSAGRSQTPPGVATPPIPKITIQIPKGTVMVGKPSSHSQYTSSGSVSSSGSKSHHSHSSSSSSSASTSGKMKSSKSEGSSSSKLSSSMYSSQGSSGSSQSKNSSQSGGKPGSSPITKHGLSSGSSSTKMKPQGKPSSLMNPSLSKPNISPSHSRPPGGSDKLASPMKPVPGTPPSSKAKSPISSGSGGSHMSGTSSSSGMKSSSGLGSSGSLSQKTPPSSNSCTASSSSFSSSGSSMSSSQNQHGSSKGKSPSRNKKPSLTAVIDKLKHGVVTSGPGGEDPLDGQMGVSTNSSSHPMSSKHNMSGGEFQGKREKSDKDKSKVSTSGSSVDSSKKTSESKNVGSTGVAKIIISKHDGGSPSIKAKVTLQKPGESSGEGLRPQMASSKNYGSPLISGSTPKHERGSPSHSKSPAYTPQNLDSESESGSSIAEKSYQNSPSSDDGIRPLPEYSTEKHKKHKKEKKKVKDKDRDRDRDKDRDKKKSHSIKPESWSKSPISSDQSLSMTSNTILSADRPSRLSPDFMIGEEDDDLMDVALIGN

T1: human SAV1 overexpressed in 293 cells (bait of the SAV1 complex for mass spectrometry) (human) (UniProt Q9H4B6)
T1 sequence: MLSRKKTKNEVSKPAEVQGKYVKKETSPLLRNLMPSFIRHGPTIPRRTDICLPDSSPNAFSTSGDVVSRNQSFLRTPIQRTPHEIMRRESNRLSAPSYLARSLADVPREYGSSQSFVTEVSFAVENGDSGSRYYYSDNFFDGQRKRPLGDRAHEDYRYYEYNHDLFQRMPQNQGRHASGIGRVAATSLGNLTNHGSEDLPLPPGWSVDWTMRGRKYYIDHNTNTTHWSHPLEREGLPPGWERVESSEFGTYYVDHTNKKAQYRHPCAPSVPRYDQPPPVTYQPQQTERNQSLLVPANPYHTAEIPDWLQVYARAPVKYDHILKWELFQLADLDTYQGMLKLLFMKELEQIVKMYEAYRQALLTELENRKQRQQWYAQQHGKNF

B1: PPARγ coactivator (PGC)-1β (protein, UniProt Q86YN6 1-1023)
chain: MAGNDCGALLDEELSSFFLNYLADTQGGGSGEEQLYADFPELDLSQLDASDFDSATCFGELQWCPENSETEPNQYSPDDSELFQIDSENEALLAELTKTLDDIPEDDVGLAAFPALDGGDALSCTSASPAPSSAPPSPAPEKPSAPAPEVDELSLLQKLLLATSYPTSSSDTQKEGTAWRQAGLRSKSQRPCVKADSTQDKKAPMMQSQSRSCTELHKHLTSAQCCLQDRGLQPPCLQSPRLPAKEDKEPGEDCPSPQPAPASPRDSLALGRADPGAPVSQEDMQAMVQLIRYMHTYCLPQRKLPPQTPEPLPKACSNPSQQVRSRPWSRHHSKASWAEFSILRELLAQDVLCDVSKPYRLATPVYASLTPRSRPRPPKDSQASPGRPSSVEEVRIAASPKSTGPRPSLRPLRLEVKREVRRPARLQQQEEEDEEEEEEEEEEEKEEEEEWGRKRPGRGLPWTKLGRKLESSVCPVRRSRRLNPELGPWLTFADEPLVPSEPQGALPSLCLAPKAYDVERELGSPTDEDSGQDQQLLRGPQIPALESPCESGCGDMDEDPSCPQLPPRDSPRCLMLALSQSDPTFGKKSFEQTLTVELCGTAGLTPPTTPPYKPTEEDPFKPDIKHSLGKEIALSLPSPEGLSLKATPGAAHKLPKKHPERSELLSHLRHATAQPASQAGQKRPFSCSFGDHDYCQVLRPEGVLQRKVLRSWEPSGVHLEDWPQQGAPWAEAQAPGREEDRSCDAGAPPKDSTLLRDHEIRASLTKHFGLLETALEEEDLASCKSPEYDTVFEDSSSSSGESSFLPEEEEEEGEEEEEDDEEEDSGVSPTCSDHCPYQSPPSKANRQLCSRSRSSSGSSPCHSWSPATRRNFRCESRGPCSDRTPSIRHARKRREKAIGEGRVVYIQNLSSDMSSRELKRRFEVFGEIEECEVLTRNRRGEKYGFITYRCSEHAALSLTKGAALRKRNEPSFQLSYGGLRHFCWPRYTDYDSNSEEALPASGKSKYEAMDFDSLLKEAQQSLH

Target: T1, human SAV1 overexpressed in 293 cells (bait of the SAV1 complex for mass spectrometry) (human)
Test: affinity purification with mass spectrometry; SAV1 complex purified by immunoprecipitation from 293 cells overexpressing human SAV1 and/or human MST2; mass spectrometric analysis

Row | Molecule | binding
1 | Mediator complex subunit 1 (MED1) (from UniProt Q15648 1-1581) | binds
2 | B1 | binds

No constants are given. Whether binding was seen depends on the method and setting. In cells and extracts the contact can be indirect. These calls come from enrichment with a bait or labelling near it, and not all partners need be listed.
